Assay in all cases: co-IP
In one experiment the target is rLUC7L3-ΔMC (UniProt O95232).
The target in the next experiment is rRBM25-ΔMC (UniProt P49756).
The target in experiment [1] is rLUC7L3 mixed charge (MC) domain alone.
Experiment [2] deals with rRBM25 mixed charge (MC) domain alone.

Protein sequences, listed by entry. Tags and fused reporters are not part of them. Lines headed by an entry give the natural chain unless they say otherwise; changes in a name come on top.
UniProt P49756: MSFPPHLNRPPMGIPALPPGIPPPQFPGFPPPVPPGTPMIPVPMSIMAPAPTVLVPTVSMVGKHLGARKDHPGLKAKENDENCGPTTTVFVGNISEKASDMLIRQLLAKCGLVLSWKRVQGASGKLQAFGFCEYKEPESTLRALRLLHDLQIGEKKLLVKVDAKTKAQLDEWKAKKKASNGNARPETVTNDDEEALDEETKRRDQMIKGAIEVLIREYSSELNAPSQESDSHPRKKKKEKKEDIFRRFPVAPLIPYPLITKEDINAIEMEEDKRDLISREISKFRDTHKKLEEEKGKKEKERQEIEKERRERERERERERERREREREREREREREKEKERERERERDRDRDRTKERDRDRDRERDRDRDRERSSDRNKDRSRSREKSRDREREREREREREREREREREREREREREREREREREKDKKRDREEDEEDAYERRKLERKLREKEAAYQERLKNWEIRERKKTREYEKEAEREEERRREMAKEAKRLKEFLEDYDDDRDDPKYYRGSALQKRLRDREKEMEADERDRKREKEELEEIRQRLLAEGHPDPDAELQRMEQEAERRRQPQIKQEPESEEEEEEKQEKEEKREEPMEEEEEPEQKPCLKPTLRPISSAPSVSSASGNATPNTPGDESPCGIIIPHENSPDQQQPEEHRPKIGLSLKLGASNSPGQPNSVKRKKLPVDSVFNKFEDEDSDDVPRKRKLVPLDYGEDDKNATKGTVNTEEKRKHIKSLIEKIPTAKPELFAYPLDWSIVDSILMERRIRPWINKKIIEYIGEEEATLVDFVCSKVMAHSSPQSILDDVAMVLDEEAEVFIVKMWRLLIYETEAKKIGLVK
UniProt P08621: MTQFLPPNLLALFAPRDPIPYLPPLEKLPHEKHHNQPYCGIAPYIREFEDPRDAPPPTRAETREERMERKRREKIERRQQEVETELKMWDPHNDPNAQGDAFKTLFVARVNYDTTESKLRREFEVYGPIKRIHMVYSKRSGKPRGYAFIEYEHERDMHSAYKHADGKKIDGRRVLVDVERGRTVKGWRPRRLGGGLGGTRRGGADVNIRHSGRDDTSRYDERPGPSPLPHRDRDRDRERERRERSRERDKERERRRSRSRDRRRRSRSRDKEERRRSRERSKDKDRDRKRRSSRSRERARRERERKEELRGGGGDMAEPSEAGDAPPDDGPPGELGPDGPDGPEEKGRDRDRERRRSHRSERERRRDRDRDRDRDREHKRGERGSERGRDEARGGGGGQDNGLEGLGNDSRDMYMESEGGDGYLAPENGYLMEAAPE

These are yes or no findings as the source states them, for the method shown. Binding seen in cells or lysates may run through a third protein. For some assays here: Binding calls can cover weak binding; strength is not graded here. For some assays here: Sequences can lack the tags named with a protein.

“endogenous U1-70K (from UniProt P08621 1-437)”: the binding result in the experiment with rLUC7L3-ΔMC and with rRBM25-ΔMC was “no binding” throughout.

B1: endogenous LUC7L3 (protein, UniProt O95232 1-432)
chain: MISAAQLLDELMGRDRNLAPDEKRSNVRWDHESVCKYYLCGFCPAELFTNTRSDLGPCEKIHDENLRKQYEKSSRFMKVGYERDFLRYLQSLLAEVERRIRRGHARLALSQNQQSSGAAGPTGKNEEKIQVLTDKIDVLLQQIEELGSEGKVEEAQGMMKLVEQLKEERELLRSTTSTIESFAAQEKQMEVCEVCGAFLIVGDAQSRVDDHLMGKQHMGYAKIKATVEELKEKLRKRTEEPDRDERLKKEKQEREEREKEREREREERERKRRREEEEREKERARDRERRKRSRSRSRHSSRTSDRRCSRSRDHKRSRSRERRRSRSRDRRRSRSHDRSERKHRSRSRDRRRSKSRDRKSYKHRSKSRDREQDRKSKEKEKRGSDDKKSSVKSGSREKQSEDTNTESKESDTKNEVNGTSEDIKSEGDTQSN
Consider B1, for which the binding entry in experiment [1] is listed as “binds”; in experiment [2] it was “no binding”; with rRBM25-ΔMC it was “no binding”.

The record behind these values is publication doi:10.1101/243014.
